Reference: paper PMC11570452, “MOTS-c modulates skeletal muscle function by directly binding and activating CK2” (iScience, 2024)
No constants are given. Whether binding was seen depends on the method and setting. Binding seen in cells or lysates may run through a third protein. These calls come from enrichment with a bait or labelling near it, and not all partners need be listed.

Protein sequences, listed by entry. Tags and fused reporters are not part of them.
UniProt Q60737: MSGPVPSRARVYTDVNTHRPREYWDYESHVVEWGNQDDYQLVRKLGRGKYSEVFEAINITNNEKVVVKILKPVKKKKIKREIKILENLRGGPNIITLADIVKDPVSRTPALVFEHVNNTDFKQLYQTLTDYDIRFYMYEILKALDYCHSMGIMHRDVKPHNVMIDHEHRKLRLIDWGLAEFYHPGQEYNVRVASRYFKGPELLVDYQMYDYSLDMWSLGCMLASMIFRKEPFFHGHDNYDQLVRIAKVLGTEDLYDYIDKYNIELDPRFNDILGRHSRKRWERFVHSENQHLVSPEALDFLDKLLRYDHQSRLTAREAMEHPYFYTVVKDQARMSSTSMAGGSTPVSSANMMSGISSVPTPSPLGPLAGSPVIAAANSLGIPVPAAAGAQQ

B1: ubiquinol-cytochrome c reductase core protein 1 (UQCRC1) (protein, UniProt Q9CZ13 35-480)
chain: TATFAQALQSVPETQVSILDNGLRVASEQSSHATCTVGVWIDAGSRYETEKNNGAGYFLEHLAFKGTKNRPGNALEKEVESIGAHLNAYSTREHTAYLIKALSKDLPKVVELLADIVQNSSLEDSQIEKERDVILREMQENDASMQNVVFDYLHATAFQGTPLAQAVEGPSENVRRLSRTDLTDYLNRHYKAPRMVLAAAGGVEHQQLLDLAQKHLSSVSRVYEEDAVPGLTPCRFTGSEIRHRDDALPLAHVAIAVEGPGWANPDNVTLQVANAIIGHYDCTYGGGVHLSSPLASVAVANKLCQSFQTFNISYSDTGLLGAHFVCDAMSIDDMVFFLQGQWMRLCTSATESEVTRGKNILRNALVSHLDGTTPVCEDIGRSLLTYGRRIPLAEWESRIQEVDAQMLRDICSKYFYDQCPAVAGYGPIEQLPDYNRIRSGMFWLRF
B2: synaptojanin 2 (SYNJ2) (protein, UniProt Q9D2G5 1-1434)
chain: MALSKGLRLLARLDPTGPSSVLLEARGRGDCLLFEAGAVATLAPEEKEVIKGLYSKLTDAYGCLGELRLQSGGVPLSFLVLVTGCMSVGRIPDAEIYKITATELYPLQEEAKEEDRLPTLKKILSSGVFYFAWPNDGACFDLTIRAQKQGDDGSEWGTSFFWNQLLHVPLRQHQVNCHNWLLKVICGVVTIRTVYASHKQAKACLISRISCERAGARFLTRGVNDDGHVSNFVETEQTIYMDDGVSSFVQIRGSVPLFWEQPGLQVGSHHLRLHRGLEANAPAFERHMVLLKEQYGKQVVVNLLGSRGGEEVLNRAFKKLLWASCHAGDTPMINFDFHQFAKGRKLEKLENLLRPQLQLHWEDFGVFAKGENVSPRFQKGTLRMNCLDCLDRTNTVQCFIALEVLHLQLESLGLNSKPIIDRFVESFKAMWSLNGHSLSKVFTGSRALEGKAKVGKLKDGARSMSRTIQSNFFDGVKQEAIKLLLVGDVYNEESTDKGRMLLDNTALLATPRILKAMTERQSEFTNFKRIQIAVGTWNVNGGKQFRSNLLGTAELTDWLLDAPQLSGAVDSQDDGSPADVFAIGFEEMVELSAGNIVNASTTNRKMWGEQLQKAISRSHRYILLTSAQLVGVCLYIFVRPYHVPFIRDVAIDTVKTGMGGKAGNKGAVGIRFQLHSTSFCFVCSHLTAGQSQVKERNEDYREITHKLSFPSGRNIFSHDYVFWCGDFNYRIDLTYEEVFYFVKRQDWKKLMEFDQLQLQKSSGKIFKDFHEGAVNFGPTYKYDVGSAAYDTSDKCRTPAWTDRVLWWRKKHPYDKTAGELNLLDSDLDGDPQIRHTWSPGTLKYYGRAELQASDHRPVLAIVEVEVQEVDVGARERVFQEVSSVQGPLDATVVVNLQSPTLEEKNEFPEDLRTELMQTLGNYGTIILVRINQGQMLVTFADSHSALSVLDVDGMKVKGRAVKIRPKTKDWLEGLREELLRKRDSMAPVSPTANSCLLEENFDFSSLDYESEGDVLEEDEDYLVDGFGQPVVSDSELGGDNSSDTMSSLTPASKSPALAKKKQHPTYKAGLMVKKSASDASISSGTHGQYSILQTAKLLPGAPQQPPKARTGISKPYNVKQIKTTNAQEAEAAIRCLLEASGGVPESAPGAIPLRNQGSSKPEATLGPPALPRRPAPRVPTMKKPTLRRTGKPMLPEENFEPQPVHFTMASQEMNLETPPPITATPIPPVPKPRTLQPGKGVEGRPSSGKPEPDEAPSVTGTVESPPPEAQEAPSLAPKVPPRRKKSAPAAFHLQVLQNNSQVLQGLTCSSSSPPSLKPDTHPLCLQVALGTSSARSPETHGPRVTEPEAASFHGNYPDPFWSLLHHPKLLNNTWLSKSSEPLDVGSRNPERTHTEPAQVNASLAERGLPPDHGGKDLSHWVTASNKDKRTTLGV
B3: nuclear casein kinase and cyclin-dependent kinase substrate 1 (NUCKS1) (protein, UniProt Q80XU3 1-234)
chain: MSRPVRNRKVVDYSQFQESDDADEDYGRDSGPPAKKIRSSPREAKNKRRSGKNSQEDSEDSEEKDVKTKKDDSHSAEDSEDEKDDHKNVRQQRQAASKAASKQREMLLEDVGSEEEPEEDDEAPFQEKDSGSDEDFLMEDDDDSDYGSSKKKNKKMVKKSKPERKEKKMPKPRLKATVTPSPVKGKAKVGRPTASKKSKEKTPSPKEEDEEAESPPEKKSGDEGSEDEASSGED

What follows are binders tested against CK2α, endogenous in mouse tissues (mouse (endogenous in C57BL/6J gastrocnemius muscle, epididymal fat, liver)) (UniProt Q60737) (assay: affinity purification with mass spectrometry; CK2α immunoprecipitation (rabbit IgG as control) from gastrocnemius muscle and epididymal fat of mice 30 min after MOTS-c or sterilized water; LC-MS/MS, n = 3 per condition).
With B1 the binding was “binds”. For B2, the binding was “binds”. In the case of B3, the binding is reported as “binds”.
